# Laboratory results taken from patent US5459236A (Ferring AB, priority 1990, dated 1995).
# Strings that start with PEPTIDE1 are HELM notation: dots part the residues, brackets hold end groups and non-standard residues.
# Experiment: general procedure: Boc solid-phase peptide synthesis; 4-methylbenzhydrylamine resin, theoretical loading 0.65 meq/g (Peninsula Laboratories Inc.)
# Settings: late stage modification step, 223 nm
row,Substance,final HPLC purity [%]
1,"PEPTIDE1{[Hmp].F.I.[Hci].N.C.P.[Dab].G.[am]}|PEPTIDE2{[Abu]}$PEPTIDE1,PEPTIDE1,1:R3-6:R3|PEPTIDE1,PEPTIDE2,8:R3-1:R2$$$V2.0",99.5
2,"PEPTIDE1{[Hmp].F.I.[Hgn].N.C.P.[Dab].G.[am]}|PEPTIDE2{A}$PEPTIDE1,PEPTIDE1,1:R3-6:R3|PEPTIDE1,PEPTIDE2,8:R3-1:R2$$$V2.0",99.8
3,"PEPTIDE1{[Hmp].F.I.[Hgn].N.C.P.[Dab].G.[am]}|PEPTIDE2{[Abu]}$PEPTIDE1,PEPTIDE1,1:R3-6:R3|PEPTIDE1,PEPTIDE2,8:R3-1:R2$$$V2.0",99.5

# Same assay, conditions: whole synthesis, 223 nm
row,Substance,final HPLC purity [%]
1,"PEPTIDE1{[Hmp].F.I.[Hci].N.C.P.[Dab].G.[am]}$PEPTIDE1,PEPTIDE1,1:R3-6:R3$$$V2.0",98.5
2,"PEPTIDE1{[Hmp].F.I.[Hgn].N.C.P.[Dab].G.[am]}$PEPTIDE1,PEPTIDE1,1:R3-6:R3$$$V2.0",99.5
3,"PEPTIDE1{[Hmp].Y.I.[Hgn].N.C.P.[Dab].G.[am]}$PEPTIDE1,PEPTIDE1,1:R3-6:R3$$$V2.0",>99
4,"PEPTIDE1{[Hmp].Y.I.[Hgn].N.C.P.[Orn].G.[am]}$PEPTIDE1,PEPTIDE1,1:R3-6:R3$$$V2.0",98.5
